# Measured values: PubChem BioAssay AID1439 (NMMLSC, 2008)
# Sequences of proteins named here, by UniProt entry; tags and fusion partners are left off.
# UniProt P09471, whole entry, looked up: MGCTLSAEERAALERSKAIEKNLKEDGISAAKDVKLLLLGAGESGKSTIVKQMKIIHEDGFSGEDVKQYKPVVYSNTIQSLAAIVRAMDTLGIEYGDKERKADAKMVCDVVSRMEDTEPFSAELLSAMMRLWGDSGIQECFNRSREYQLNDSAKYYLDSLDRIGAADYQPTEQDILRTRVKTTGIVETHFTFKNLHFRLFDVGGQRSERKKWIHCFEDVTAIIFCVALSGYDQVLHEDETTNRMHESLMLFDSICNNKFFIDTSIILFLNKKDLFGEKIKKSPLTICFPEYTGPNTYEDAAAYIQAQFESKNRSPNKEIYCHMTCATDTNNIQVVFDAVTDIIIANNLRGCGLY
# About 770 (0.35%) of roughly 220,000 compounds were called active. The shares of active, inactive and inconclusive entries below differ from those in the screen. Cut-off read from the data, not from the text of the source: active = binding response below about 49% or above about 150%; inconclusive = no clear call, values can overlap the other calls; inactive = in between.
# Biological target: Guanine nucleotide-binding protein G(o) subunit alpha (Homo sapiens) (UniProt P09471)
# Test: RGS7-Galphao binding modulators, primary screen, biochemical, multiplexed bead flow cytometry (AID 1439);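 note: fluorescent Galphao held in activated GDP-AlF4 state binding bead-coupled RGS7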
# Conditions: at 10 µM, actives lie on both sides
row,SMILES,binding response (% of control)
1,CCCN1C(=O)c2cc(C(=O)Nc3ccc(OC)cc3OC)ccc2C1Nc1ccc(OC)cc1OC (stereo not given),inactive: 99.2%
2,CC(C)=CCc1c(O)cc2oc3c(CC=C(C)C)c(O)c(O)c(CC=C(C)C)c3c(=O)c2c1O,inconclusive: 60.2%
3,CCc1c(O)nc(SCC(=O)Nc2nc3ccccc3s2)n(-c2ccccc2)c1=O,inconclusive: 104%
4,C/C=C(\C)C(=O)NNC(=O)c1sc(-c2ccccc2)nc1C,inconclusive: 98.8%
5,CCOC(=O)Cn1nc(C)n(-c2cccc(Cl)c2)c1=O,inconclusive: 107%
6,N/C(=N/O)c1cccn1Cc1ccccc1[N+](=O)[O-],inactive: 99.3%
7,C=CCOC(=O)C(=O)/C=C/c1c(C)n(C)n(-c2ccccc2)c1=O,active: 154% [activator]
8,CC(C)(C)c1ccccc1NC(=S)NC1CCCCC1,inactive: 97.3%
9,O=C(Nc1ccc(F)cc1)Oc1ccccc1N1CCOCC1,inconclusive: 83.2%
10,Cc1nc(N2CCCCC2)sc1C=O,inconclusive: 121%
11,Cc1ccc(C(=O)Cn2cc([N+](=O)[O-])nc2C)cc1,inconclusive: 93%
12,O=C(NCC1OCCCN1S(=O)(=O)c1cc(F)ccc1F)C(=O)NC1CCCCC1 (stereo not given),inactive: 102%
13,Cc1ccc(SCCNC(=O)/C=C/c2ccc([N+](=O)[O-])cc2)cc1,inactive: 112%
14,O=C(/C=C/c1ccc(Br)o1)NCCCN1CCOCC1,inactive: 98.6%
15,O=C(Nc1ccc(Cl)cc1)Nc1nc(-c2ccccc2O)cs1,inconclusive: 91.7%
16,CCOC(=O)N1CCN(Cc2nc(N)nc(Nc3ccc(C)cc3C)n2)CC1,inactive: 107%
17,COc1cc(/C=C/C2=CC(C)(C)NC(=S)N2)cc(OC)c1OC,inconclusive: 95.2%
18,O=C(COC(=O)C1(c2cccc(F)c2)CCCC1)NCc1cccs1,inconclusive: 92.5%
19,C=CCn1c(SCC(=O)c2ccc(O)c(O)c2)nnc1-c1ccccc1OC,inactive: 54.9%
20,O=c1c(C(c2ccc(Cl)cc2)c2c(O)nc3n(c2=O)CCS3)c(O)nc2n1CCS2,inconclusive: 91.1%

row,SMILES,binding response (% of control)
1,Cc1nn(-c2ccccc2)nc1CNC(=O)C1CCC1,inconclusive: 123%
2,COc1ccc(/C=N/NC(=O)c2cccc([N+](=O)[O-])c2)cc1O,inconclusive: 118%
3,COc1cc(C(=O)OCCCN(C)C)cc(OC)c1OC,inconclusive: 86.8%
4,COc1ccc(NC(=O)c2ccccn2)cc1OC,inactive: 84.2%
5,O=c1c2ccccc2c(C=NC2CCN(Cc3ccccc3)CC2)c(O)n1Cc1ccc2c(c1)OCO2,inconclusive: 79.4%
6,CC(=O)Nc1ccc2c(c1)nc1n2CCN(C2CCCCC2)C1,inactive: 105%
7,Brc1ccc(Sc2cnc3ccccc3n2)cc1,inactive: 93.1%
8,Cn1c(SCC(=O)NCCc2ccc(S(N)(=O)=O)cc2)nc2ccccc2c1=O,inconclusive: 95%
9,O=C(CC(C(=O)O)P(=O)(c1ccccc1)c1ccccc1)c1ccc(Br)cc1 (stereo not given),inconclusive: 63.7%
10,C=CCn1c(=S)sc2c(=O)[nH]c(C)nc21,inconclusive: 110%
11,O=C1NCCC/C1=N\Nc1ccc(Br)cc1,inconclusive: 100%
12,S=C(NNc1ccnc2cc(Cl)ccc12)Nc1ccc(Cl)cc1Cl,inconclusive: 68.8%
13,COc1ccccc1NC(=S)NC(NC(C)=O)C(Cl)(Cl)Cl (stereo not given),inconclusive: 114%
14,O=C(Nc1cccnc1)c1c(O)c2cccc3c2n(c1=O)CC3,inactive: 134%
15,CNC(=O)c1cc2cc(Br)ccc2s1,inconclusive: 108%
16,COc1ccc(NC(=O)c2cc(F)c(F)cc2Cl)cc1Cl,inconclusive: 58.7%
17,O=C(Cn1nc(-c2ccccc2)ccc1=O)Nc1ccc(-n2cnnn2)cc1,inconclusive: 106%
18,Nc1ccc(-c2nc3ccc(N)cc3o2)cc1,active: 1.95%
19,Cc1cc(N2CCN(C)CC2)nc2ccc(NC(=S)N3CCCCCC3)cc12,inconclusive: 95.1%
20,S=c1nc(-c2ccc(Cl)cc2)[nH][nH]1,inconclusive: 73.1%

# At a glance, part of the list above.
row,SMILES,binding response (% of control)
10,Cc1nc(N2CCCCC2)sc1C=O,inconclusive: 121%
11,Cc1ccc(C(=O)Cn2cc([N+](=O)[O-])nc2C)cc1,inconclusive: 93%
12,O=C(NCC1OCCCN1S(=O)(=O)c1cc(F)ccc1F)C(=O)NC1CCCCC1 (stereo not given),inactive: 102%
13,Cc1ccc(SCCNC(=O)/C=C/c2ccc([N+](=O)[O-])cc2)cc1,inactive: 112%
14,O=C(/C=C/c1ccc(Br)o1)NCCCN1CCOCC1,inactive: 98.6%
15,O=C(Nc1ccc(Cl)cc1)Nc1nc(-c2ccccc2O)cs1,inconclusive: 91.7%
16,CCOC(=O)N1CCN(Cc2nc(N)nc(Nc3ccc(C)cc3C)n2)CC1,inactive: 107%
17,COc1cc(/C=C/C2=CC(C)(C)NC(=S)N2)cc(OC)c1OC,inconclusive: 95.2%
18,O=C(COC(=O)C1(c2cccc(F)c2)CCCC1)NCc1cccs1,inconclusive: 92.5%
19,C=CCn1c(SCC(=O)c2ccc(O)c(O)c2)nnc1-c1ccccc1OC,inactive: 54.9%
20,O=c1c(C(c2ccc(Cl)cc2)c2c(O)nc3n(c2=O)CCS3)c(O)nc2n1CCS2,inconclusive: 91.1%
1,Cc1nn(-c2ccccc2)nc1CNC(=O)C1CCC1,inconclusive: 123%
2,COc1ccc(/C=N/NC(=O)c2cccc([N+](=O)[O-])c2)cc1O,inconclusive: 118%
3,COc1cc(C(=O)OCCCN(C)C)cc(OC)c1OC,inconclusive: 86.8%
4,COc1ccc(NC(=O)c2ccccn2)cc1OC,inactive: 84.2%
5,O=c1c2ccccc2c(C=NC2CCN(Cc3ccccc3)CC2)c(O)n1Cc1ccc2c(c1)OCO2,inconclusive: 79.4%
6,CC(=O)Nc1ccc2c(c1)nc1n2CCN(C2CCCCC2)C1,inactive: 105%

# Next part

row,SMILES,binding response (% of control)
1,COc1ccc2c(c1)c(C(=O)N/N=C/c1ccc(Br)cc1)c(C)n2C,inconclusive: 27%
2,CCC1=NC(c2ccc(Br)cc2)N(O)C1(C)C (stereo not given),inconclusive: 84.4%
3,Cc1ccc(S(=O)(=O)c2c(C(=O)c3ccccc3)cnc3cc4c(cc23)OCCO4)cc1,inactive: 92.9%
4,O=C(Nc1cccc(-c2csc(Nc3ccccc3)n2)c1)c1ccccc1,inconclusive: 75.6%
5,COC(=O)C1=C(C)N(C)C(=S)NC1c1c(OC)ccc2ccccc12 (stereo not given),inconclusive: 84%
6,COc1ccccc1C1OC2=C(Nc3ccc([N+](=O)[O-])cc3N2)C1=O (stereo not given),inconclusive: 144%
7,O=C(COC(=O)CC1CCCC1)Nc1ccc(OC(F)F)cc1,inconclusive: 97.2%
8,COc1ccc(C(CC(=O)c2ccccc2)CC(=O)c2ccccc2)cc1,inconclusive: 86.8%
9,c1csc(-c2noc(CN3CCOCC3)n2)c1,inconclusive: 65.3%
10,S=C(c1ccc(N2CCCC2)c(Br)c1)N1CCCCC1,inconclusive: 94.9%
11,O=C(Cn1cncn1)N/N=C/c1ccccc1Cl,inconclusive: 164%
12,CCCNC(=O)c1nc(C)n(-c2ccc([N+](=O)[O-])cc2)n1,inconclusive: 94.8%
13,O=C(COC(=O)c1ccc(Cl)nc1)NCCC1=CCCCC1,inconclusive: 90.7%
14,COC(=O)c1scc(S(=O)(=O)c2ccccc2)c1N,inconclusive: 88.8%
15,Cc1ccc(-c2n[nH]c3c2C(c2cccc(O)c2)N(c2ccc(C(=O)O)cc2)C3=O)cc1 (stereo not given),inconclusive: 106%
16,C[C@H](NC(=O)c1nc[nH]c1C(=O)N[C@H](C)c1ccccc1)C(=O)OCc1ccccc1,inconclusive: 113%
17,CN(Cc1ccccc1NS(=O)(=O)c1ccc2ccccc2c1)C1CCCCC1,inactive: 102%
18,CCn1cnc2sc(C(=O)N(Cc3ccc(N(C)C)cc3)Cc3ccco3)c(C)c2c1=O,inactive: 89.9%
19,O=C1NCCN1CCNS(=O)(=O)c1ccc(F)c(Cl)c1,inconclusive: 146%
20,COC/C=C/C1=CC2=CC(=O)C(C)(OC(=O)c3cnc4ccccc4n3)C(=O)C2=CN1c1ccccc1 (stereo not given),inconclusive: 73.9%
